Assay: Cytotoxicity in MCF7 breast cancer cell line
Format: cell-based
Details: human, MCF7 breast cancer cells

With `O=C(CCCCCCC(=O)Nc1ccccc1)NO` [Compound 1, suberoylanilide hydroxamic acid] the IC50 was 730 ± 380 nM.

— article PMC3093745 (ACS Medicinal Chemistry Letters, 2011)
